# Data published in article PMC8834516.
# Protein sequences, listed by entry. Tags and fused reporters are not part of them.
# UniProt Q80TJ1: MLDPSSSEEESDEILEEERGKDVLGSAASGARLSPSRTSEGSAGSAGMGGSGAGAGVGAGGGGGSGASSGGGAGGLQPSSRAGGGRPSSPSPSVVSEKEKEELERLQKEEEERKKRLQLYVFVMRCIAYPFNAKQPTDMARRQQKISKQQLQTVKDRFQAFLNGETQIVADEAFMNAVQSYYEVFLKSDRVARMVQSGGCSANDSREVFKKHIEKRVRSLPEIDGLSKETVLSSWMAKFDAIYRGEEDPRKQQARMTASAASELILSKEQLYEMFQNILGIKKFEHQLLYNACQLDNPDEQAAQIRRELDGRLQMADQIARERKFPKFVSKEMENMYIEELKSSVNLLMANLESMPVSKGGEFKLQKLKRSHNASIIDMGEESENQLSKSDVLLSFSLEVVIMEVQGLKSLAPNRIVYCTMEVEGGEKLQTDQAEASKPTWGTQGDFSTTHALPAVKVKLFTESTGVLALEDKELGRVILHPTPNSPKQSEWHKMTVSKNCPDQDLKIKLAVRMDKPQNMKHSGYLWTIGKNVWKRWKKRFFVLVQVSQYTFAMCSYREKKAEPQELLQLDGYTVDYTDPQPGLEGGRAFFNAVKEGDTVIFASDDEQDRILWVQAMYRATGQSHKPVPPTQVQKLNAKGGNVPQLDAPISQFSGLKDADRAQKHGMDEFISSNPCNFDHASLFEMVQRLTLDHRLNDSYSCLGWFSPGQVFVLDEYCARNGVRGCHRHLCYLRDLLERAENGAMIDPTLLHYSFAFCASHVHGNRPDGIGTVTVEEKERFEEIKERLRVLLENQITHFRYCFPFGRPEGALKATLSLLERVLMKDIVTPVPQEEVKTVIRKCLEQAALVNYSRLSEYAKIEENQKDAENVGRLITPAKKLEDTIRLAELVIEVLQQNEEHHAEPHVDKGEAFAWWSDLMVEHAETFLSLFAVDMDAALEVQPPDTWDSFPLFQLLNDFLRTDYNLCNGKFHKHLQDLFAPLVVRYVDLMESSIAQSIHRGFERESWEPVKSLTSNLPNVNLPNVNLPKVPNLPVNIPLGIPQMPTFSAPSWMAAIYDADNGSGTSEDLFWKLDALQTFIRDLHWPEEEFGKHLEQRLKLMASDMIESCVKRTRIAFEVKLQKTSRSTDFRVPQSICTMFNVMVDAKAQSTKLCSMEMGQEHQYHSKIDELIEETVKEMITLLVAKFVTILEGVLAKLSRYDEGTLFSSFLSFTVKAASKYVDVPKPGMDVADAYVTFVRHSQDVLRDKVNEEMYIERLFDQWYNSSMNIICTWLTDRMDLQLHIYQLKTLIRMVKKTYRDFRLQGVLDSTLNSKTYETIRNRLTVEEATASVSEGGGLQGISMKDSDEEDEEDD
# UniProt A2AGT5: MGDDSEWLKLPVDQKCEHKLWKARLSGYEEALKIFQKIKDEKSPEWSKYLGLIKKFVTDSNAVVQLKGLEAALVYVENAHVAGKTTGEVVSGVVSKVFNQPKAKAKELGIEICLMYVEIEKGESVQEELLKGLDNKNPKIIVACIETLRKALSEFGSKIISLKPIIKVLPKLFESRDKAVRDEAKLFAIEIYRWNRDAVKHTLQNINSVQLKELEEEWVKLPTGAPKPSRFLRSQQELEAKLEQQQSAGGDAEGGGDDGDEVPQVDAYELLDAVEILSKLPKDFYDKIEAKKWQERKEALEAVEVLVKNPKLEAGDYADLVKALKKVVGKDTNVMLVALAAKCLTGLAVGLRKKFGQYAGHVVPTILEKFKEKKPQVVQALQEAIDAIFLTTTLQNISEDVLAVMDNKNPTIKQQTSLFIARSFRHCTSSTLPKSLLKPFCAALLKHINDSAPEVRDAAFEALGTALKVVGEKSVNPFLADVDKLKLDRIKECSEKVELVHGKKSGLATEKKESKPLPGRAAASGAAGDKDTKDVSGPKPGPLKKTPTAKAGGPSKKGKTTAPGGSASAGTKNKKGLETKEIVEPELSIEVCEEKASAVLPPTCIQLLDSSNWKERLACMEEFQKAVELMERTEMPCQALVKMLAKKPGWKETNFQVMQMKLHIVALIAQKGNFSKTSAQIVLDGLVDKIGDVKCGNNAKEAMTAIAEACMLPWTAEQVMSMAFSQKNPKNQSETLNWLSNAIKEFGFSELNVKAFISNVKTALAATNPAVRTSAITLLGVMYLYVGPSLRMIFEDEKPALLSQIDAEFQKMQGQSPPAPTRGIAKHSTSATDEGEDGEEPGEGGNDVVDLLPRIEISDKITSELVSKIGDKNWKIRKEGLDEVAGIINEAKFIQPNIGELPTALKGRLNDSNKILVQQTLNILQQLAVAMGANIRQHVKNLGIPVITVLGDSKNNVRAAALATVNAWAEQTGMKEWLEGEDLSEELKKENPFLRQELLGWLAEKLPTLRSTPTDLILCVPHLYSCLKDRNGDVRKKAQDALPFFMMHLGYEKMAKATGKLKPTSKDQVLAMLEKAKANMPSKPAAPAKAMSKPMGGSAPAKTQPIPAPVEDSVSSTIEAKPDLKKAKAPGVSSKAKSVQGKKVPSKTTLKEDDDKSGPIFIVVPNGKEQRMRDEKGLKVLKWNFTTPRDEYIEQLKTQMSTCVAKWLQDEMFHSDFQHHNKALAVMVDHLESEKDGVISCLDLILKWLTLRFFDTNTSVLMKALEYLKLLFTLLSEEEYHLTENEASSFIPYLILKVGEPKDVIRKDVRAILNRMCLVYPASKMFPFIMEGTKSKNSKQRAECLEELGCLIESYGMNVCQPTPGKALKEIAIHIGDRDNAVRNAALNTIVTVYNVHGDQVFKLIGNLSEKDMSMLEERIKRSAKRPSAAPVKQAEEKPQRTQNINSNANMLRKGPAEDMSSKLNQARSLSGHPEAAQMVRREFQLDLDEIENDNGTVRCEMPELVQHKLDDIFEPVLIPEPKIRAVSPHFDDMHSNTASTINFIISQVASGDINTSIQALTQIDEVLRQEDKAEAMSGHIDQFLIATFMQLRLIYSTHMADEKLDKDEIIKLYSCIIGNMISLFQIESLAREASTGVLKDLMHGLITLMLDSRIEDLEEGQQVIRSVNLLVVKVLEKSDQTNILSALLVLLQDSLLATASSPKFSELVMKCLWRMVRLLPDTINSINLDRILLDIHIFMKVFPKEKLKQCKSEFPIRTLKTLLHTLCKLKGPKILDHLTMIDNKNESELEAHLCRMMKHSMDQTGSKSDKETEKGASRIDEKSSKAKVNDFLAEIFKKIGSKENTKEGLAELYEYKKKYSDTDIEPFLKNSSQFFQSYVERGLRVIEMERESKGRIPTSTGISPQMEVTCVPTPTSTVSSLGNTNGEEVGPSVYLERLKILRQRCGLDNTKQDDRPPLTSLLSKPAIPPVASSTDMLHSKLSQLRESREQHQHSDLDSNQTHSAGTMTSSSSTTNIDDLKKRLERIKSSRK
# UniProt O70443: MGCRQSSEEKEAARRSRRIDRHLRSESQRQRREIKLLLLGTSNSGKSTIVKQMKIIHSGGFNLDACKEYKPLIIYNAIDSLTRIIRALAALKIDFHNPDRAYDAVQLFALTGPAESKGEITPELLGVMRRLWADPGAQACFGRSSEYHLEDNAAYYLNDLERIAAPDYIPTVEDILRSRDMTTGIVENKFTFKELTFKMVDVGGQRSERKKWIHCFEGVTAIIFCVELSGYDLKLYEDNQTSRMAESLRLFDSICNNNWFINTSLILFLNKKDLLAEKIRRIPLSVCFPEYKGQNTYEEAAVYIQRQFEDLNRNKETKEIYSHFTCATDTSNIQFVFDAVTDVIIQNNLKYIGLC
# UniProt Q63844: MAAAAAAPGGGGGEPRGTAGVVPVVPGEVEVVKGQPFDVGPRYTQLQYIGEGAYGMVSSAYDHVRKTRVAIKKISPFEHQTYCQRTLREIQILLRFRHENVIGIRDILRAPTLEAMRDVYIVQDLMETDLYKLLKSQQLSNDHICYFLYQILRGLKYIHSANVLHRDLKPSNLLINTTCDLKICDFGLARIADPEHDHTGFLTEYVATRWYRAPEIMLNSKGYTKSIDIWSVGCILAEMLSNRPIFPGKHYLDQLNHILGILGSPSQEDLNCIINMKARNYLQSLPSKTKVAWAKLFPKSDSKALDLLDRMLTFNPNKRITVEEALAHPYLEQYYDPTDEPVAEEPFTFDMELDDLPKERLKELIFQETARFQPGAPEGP
# UniProt P04370: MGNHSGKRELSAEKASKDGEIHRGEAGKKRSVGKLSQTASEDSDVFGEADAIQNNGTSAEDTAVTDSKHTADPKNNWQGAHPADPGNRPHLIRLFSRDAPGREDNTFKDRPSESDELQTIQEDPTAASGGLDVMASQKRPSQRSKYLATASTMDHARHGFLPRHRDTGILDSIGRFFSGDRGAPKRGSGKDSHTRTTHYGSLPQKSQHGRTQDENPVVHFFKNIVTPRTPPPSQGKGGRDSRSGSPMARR
# UniProt G5E829: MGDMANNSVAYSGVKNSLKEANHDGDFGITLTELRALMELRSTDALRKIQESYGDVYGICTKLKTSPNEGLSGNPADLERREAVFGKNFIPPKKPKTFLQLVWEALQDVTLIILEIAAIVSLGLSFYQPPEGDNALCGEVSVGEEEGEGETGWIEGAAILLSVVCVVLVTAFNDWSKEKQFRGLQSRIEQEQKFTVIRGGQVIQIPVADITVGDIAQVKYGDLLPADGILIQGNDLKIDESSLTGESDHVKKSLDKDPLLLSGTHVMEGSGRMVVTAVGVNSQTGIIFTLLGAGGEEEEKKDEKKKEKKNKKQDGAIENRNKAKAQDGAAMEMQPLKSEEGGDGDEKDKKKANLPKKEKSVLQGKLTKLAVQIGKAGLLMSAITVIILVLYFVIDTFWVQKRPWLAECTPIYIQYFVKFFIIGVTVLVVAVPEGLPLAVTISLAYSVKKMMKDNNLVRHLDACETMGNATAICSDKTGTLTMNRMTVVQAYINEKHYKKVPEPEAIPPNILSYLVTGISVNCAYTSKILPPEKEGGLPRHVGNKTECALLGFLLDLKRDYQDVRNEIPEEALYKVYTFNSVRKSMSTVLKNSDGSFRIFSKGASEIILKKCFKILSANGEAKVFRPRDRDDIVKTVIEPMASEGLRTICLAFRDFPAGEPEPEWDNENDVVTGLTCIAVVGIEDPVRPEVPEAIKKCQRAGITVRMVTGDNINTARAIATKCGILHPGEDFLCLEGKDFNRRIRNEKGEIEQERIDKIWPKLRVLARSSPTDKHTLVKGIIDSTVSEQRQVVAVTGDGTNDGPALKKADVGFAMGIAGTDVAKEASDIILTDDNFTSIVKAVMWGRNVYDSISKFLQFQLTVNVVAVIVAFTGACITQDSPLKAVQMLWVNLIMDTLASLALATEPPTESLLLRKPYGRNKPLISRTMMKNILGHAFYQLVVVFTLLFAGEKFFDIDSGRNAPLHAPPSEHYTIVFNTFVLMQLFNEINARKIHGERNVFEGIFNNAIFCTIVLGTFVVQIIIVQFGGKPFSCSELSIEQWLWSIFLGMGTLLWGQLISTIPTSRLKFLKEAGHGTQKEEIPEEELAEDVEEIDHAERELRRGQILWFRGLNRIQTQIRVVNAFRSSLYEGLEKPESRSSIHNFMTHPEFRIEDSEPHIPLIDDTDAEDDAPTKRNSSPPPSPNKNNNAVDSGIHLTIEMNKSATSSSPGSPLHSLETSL
# UniProt Q03173: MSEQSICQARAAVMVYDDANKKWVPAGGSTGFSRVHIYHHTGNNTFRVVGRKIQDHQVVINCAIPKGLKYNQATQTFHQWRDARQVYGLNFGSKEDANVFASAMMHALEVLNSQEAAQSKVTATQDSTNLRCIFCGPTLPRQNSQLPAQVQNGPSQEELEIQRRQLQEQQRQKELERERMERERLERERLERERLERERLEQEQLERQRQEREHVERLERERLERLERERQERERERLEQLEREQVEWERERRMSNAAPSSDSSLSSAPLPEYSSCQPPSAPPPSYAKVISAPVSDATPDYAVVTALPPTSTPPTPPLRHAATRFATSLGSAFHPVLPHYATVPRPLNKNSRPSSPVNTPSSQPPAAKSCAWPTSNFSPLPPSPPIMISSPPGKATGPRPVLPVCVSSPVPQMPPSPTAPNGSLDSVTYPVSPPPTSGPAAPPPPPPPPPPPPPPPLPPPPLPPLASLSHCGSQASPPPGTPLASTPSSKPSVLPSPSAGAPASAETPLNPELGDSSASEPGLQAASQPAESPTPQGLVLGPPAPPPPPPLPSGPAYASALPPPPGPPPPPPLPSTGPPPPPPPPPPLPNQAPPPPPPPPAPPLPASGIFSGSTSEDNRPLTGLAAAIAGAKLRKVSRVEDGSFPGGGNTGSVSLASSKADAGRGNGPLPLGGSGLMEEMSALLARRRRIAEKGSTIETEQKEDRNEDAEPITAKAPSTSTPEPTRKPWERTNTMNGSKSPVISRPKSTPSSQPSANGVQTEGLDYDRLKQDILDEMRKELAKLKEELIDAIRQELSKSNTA
# UniProt P60879: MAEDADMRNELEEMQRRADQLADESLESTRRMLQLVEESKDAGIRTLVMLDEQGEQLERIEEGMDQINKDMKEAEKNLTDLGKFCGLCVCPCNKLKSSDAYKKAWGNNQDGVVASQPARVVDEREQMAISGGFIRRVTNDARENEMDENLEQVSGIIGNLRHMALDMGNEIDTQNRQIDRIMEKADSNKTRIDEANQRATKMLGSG
# Results are given in words; binding and its absence hold for the method and conditions named. In cells and extracts the contact can be indirect. A yes stands for co-enrichment or nearness to the bait. Other partners may have been found.
# Biological target: T1, Transglutaminase-2 (mouse (endogenous in mouse brain)) (UniProt P21981)
# T1 sequence: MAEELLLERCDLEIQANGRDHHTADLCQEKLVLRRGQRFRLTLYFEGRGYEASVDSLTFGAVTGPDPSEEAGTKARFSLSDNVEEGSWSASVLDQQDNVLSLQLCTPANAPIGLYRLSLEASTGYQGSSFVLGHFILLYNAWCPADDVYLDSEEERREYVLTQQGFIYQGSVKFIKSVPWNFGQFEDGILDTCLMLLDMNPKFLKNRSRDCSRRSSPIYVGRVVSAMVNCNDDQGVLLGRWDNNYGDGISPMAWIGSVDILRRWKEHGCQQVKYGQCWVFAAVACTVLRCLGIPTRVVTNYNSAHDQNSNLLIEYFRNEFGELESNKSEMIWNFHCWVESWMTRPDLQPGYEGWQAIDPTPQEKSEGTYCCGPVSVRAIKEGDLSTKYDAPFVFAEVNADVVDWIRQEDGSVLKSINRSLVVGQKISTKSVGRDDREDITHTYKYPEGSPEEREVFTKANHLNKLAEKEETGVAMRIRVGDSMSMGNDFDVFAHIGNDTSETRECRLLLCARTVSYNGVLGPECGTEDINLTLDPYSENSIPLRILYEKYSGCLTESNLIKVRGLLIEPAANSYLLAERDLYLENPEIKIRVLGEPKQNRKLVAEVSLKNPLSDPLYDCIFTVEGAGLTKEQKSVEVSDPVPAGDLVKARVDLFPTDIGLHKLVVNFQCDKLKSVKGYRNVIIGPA
# Assay: affinity purification with mass spectrometry; TG2 immunoprecipitated from total brain homogenates of 18-month-old WT and APP23 mice with anti-TG2 antibody IA12 crosslinked to protein A/G magnetic beads, 22 h at 4 °C; IP lysis buffer 25 mM Tris pH 7.4, 150 mM NaCl, 1 mM EDTA, 1% NP40, 5% glycerol; on-bead trypsin digest, SWATH MS; TG2−/− cohorts as background, z-test p ≤ 0.05, n = 5 per cohort
row,Substance,binding
1,14-3-3 protein eta (from UniProt P68510 1-246),binds
2,"ATP synthase subunit alpha, mitochondrial (from UniProt Q03265 44-553)",binds
3,Adenylyl cyclase-associated protein 2 (from UniProt Q9CYT6 1-476),binds
4,Aldose reductase (from UniProt P45376 1-316),binds
5,Ankyrin-1 (from UniProt Q02357 1-1862),binds
6,Annexin A5 (from UniProt P48036 1-319),binds
7,Band 4.1-like protein 1 (from UniProt Q9Z2H5 1-879),binds
8,Band 4.1-like protein 3 (from UniProt Q9WV92 1-929),binds
9,Beta-adrenergic receptor kinase 1 (from UniProt Q99MK8 1-689),binds
10,Beta-hexosaminidase subunit beta (from UniProt P20060 32-536),binds
11,Brevican core protein (from UniProt Q61361 23-883),binds
12,Calcium-dependent secretion activator 1 (from UniProt Q80TJ1 1-1355),binds
13,Carbonic anhydrase 2 (from UniProt P00920 1-260),binds
14,Complement factor H (from UniProt P06909 19-1234),binds
15,Coronin-1C (from UniProt Q9WUM4 1-474),binds
16,Creatine kinase B-type (from UniProt Q04447 1-381),binds
17,Cullin-5 (from UniProt Q9D5V5 1-780),binds
18,Cyclin-dependent-like kinase 5 (from UniProt P49615 1-292),binds
19,Cytoskeleton-associated protein 5 (from UniProt A2AGT5 1-2032),binds
20,Disheveled-associated activator of morphogenesis 1 (from UniProt Q8BPM0 1-1077),binds
21,Endoplasmin (from UniProt P08113 22-802),binds
22,Fatty acid synthase (from UniProt P19096 1-2504),binds

row,Substance,binding
1,GTP-binding protein Rheb (from UniProt Q921J2 1-184),binds
2,Gamma-enolase (from UniProt P17183 1-434),binds
3,Glutamine synthetase (from UniProt P15105 1-373),binds
4,Guanine nucleotide-binding protein G(i) subunit alpha-2 (from UniProt P08752 1-355),binds
5,Guanine nucleotide-binding protein G(z) subunit alpha (from UniProt O70443 1-355),binds
6,Heat shock-related 70 kDa protein 2 (from UniProt P17156 1-633),binds
7,"Inositol 1,4,5-trisphosphate receptor type 1 (from UniProt P11881 1-2749)",binds
8,Metabotropic glutamate receptor 3 (from UniProt Q9QYS2 23-879),binds
9,Mitogen-activated protein kinase 3 (from UniProt Q63844 1-380),binds
10,Myelin basic protein (from UniProt P04370 1-250),binds
11,Myosin-10 (from UniProt Q61879 1-1976),binds
12,Neural cell adhesion molecule L1 (from UniProt P11627 20-1260),binds
13,Neurexin-1 (from UniProt Q9CS84 31-1514),binds
14,Neurexin-2 (from UniProt E9Q7X7 29-1710),binds
15,Neuronal cell adhesion molecule (from UniProt Q810U4 30-1256),binds
16,Plasma membrane calcium-transporting ATPase 1 (from UniProt G5E829 1-1220),binds
17,Plexin-B2 (from UniProt B2RXS4 20-1842),binds
18,Potassium/sodium hyperpolarization-activated cyclic nucleotide-gated channel 1 (from UniProt O88704 1-910),binds
19,Prolow-density lipoprotein receptor-related protein 1 (from UniProt Q91ZX7 20-4545),binds
20,Protein NDRG1 (from UniProt Q62433 1-394),binds
21,Protein disulfide-isomerase A3 (from UniProt P27773 25-505),binds
22,Protein enabled homolog (from UniProt Q03173 1-802),binds

row,Substance,binding
1,Protein kinase C beta type (from UniProt P68404 1-671),binds
2,Protein kinase C gamma type (from UniProt P63318 1-697),binds
3,S-adenosylhomocysteine hydrolase-like protein 1 (from UniProt Q80SW1 1-530),binds
4,Serine/threonine-protein phosphatase 2B catalytic subunit alpha isoform (from UniProt P63328 1-521),binds
5,Serum albumin (from UniProt P07724 25-608),binds
6,Sodium/potassium-transporting ATPase subunit beta-2 (from UniProt P14231 1-290),binds
7,"Spectrin alpha chain, non-erythrocytic 1 (from UniProt P16546 1-2472)",binds
8,Src substrate cortactin (from UniProt Q60598 1-546),binds
9,Synaptosomal-associated protein 25 (from UniProt P60879 1-206),binds
10,Synaptotagmin-1 (from UniProt P46096 1-421),binds
11,Synaptotagmin-2 (from UniProt P46097 1-422),binds
12,Telomere-associated protein RIF1 (from UniProt Q6PR54 1-2419),binds
13,Traf2 and NCK-interacting protein kinase (from UniProt P83510 1-1323),binds
14,"Type 1 phosphatidylinositol 4,5-bisphosphate 4-phosphatase (from UniProt Q3TWL2 1-284)",binds
15,Ubiquitin carboxyl-terminal hydrolase isozyme L1 (from UniProt Q9R0P9 1-223),binds
16,V-type proton ATPase catalytic subunit A (from UniProt P50516 1-617),binds
17,Vinculin (from UniProt Q64727 1-1066),binds
18,Voltage-dependent calcium channel subunit alpha-2/delta-2 (from UniProt Q6PHS9 19-1154),binds
19,[Protein ADP-ribosylarginine] hydrolase (from UniProt P54923 1-362),binds
20,beta-tubulin (mouse (endogenous in mouse brain)),binds
